Some of the results follow.
Compound: Cc1cc(ccc1-c1ccccc1)C(=O)N1CCCN(CC1)C(=O)CCl [compound 10]
Assay: probe-labelled cysteine peptide fold change vs DMSO (competition) (log2 fold change); higher = less target engagement (more negative = stronger competition)
Conditions: THP-1, incubation time: 4 h
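Also: competitive profiling in live THP-1 cells: cysteine peptides tagged with an iodoacetamide desthiobiotin (IA-DTB) probe, intensity after compound treatment relative to DMSO-treated cells.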

Sequences of proteins named here, by UniProt entry; tags and fusion partners are left off. A change or cut given only in a name is not applied to a line headed by its entry.
UniProt Q9ULT0: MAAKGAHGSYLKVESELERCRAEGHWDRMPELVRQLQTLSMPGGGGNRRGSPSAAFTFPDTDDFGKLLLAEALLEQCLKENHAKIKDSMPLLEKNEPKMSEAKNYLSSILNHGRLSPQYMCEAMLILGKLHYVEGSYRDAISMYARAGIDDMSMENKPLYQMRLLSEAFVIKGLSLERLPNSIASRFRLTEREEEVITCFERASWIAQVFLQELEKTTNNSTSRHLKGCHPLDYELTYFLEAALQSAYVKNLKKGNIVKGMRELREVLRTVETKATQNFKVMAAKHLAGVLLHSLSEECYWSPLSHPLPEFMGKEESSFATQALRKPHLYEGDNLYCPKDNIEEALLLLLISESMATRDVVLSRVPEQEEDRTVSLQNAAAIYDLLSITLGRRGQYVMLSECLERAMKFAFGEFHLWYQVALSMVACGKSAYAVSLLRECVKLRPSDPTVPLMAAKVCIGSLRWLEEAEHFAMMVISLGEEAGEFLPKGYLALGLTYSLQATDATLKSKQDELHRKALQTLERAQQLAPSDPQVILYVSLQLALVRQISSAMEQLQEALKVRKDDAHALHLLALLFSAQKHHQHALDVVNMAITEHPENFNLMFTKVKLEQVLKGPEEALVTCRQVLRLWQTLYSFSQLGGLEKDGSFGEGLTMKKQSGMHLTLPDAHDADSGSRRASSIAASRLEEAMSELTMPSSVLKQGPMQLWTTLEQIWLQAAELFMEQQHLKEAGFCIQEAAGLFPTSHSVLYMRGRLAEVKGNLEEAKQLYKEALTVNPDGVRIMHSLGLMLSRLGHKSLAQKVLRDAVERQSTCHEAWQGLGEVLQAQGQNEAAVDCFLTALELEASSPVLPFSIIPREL
UniProt Q3B726, whole entry, looked up: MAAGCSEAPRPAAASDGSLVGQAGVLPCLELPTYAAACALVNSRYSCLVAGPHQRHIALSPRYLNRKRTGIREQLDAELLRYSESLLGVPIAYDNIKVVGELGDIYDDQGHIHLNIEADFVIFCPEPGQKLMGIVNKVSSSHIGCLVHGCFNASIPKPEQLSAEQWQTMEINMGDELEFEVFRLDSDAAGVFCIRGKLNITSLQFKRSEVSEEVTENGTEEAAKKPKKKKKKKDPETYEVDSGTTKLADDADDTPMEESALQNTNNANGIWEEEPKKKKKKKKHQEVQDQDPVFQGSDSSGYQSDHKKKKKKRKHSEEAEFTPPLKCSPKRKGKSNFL
UniProt Q96CW5, whole entry, looked up: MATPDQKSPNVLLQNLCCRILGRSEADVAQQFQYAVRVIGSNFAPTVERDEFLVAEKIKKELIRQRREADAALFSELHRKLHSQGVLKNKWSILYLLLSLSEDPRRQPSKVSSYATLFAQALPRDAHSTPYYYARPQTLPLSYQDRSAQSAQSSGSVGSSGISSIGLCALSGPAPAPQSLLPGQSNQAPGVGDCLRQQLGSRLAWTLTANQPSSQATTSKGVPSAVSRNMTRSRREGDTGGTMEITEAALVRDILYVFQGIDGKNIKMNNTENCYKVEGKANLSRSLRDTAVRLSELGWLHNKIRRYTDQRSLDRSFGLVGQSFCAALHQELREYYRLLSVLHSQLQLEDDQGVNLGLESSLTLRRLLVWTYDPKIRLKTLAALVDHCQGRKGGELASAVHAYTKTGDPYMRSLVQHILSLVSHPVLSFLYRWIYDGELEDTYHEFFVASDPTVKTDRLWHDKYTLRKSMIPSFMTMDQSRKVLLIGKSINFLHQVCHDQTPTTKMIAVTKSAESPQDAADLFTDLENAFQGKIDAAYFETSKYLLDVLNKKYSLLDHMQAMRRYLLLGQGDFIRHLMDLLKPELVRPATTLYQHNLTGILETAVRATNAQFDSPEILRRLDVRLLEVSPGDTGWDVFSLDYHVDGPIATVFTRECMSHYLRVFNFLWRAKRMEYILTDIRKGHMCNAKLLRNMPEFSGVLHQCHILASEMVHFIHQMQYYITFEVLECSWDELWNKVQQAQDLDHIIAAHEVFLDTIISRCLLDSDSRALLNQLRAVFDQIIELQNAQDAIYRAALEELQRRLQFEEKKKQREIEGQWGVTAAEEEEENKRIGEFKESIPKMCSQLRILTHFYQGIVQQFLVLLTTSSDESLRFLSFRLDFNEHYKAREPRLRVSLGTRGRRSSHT
UniProt Q8IZ69: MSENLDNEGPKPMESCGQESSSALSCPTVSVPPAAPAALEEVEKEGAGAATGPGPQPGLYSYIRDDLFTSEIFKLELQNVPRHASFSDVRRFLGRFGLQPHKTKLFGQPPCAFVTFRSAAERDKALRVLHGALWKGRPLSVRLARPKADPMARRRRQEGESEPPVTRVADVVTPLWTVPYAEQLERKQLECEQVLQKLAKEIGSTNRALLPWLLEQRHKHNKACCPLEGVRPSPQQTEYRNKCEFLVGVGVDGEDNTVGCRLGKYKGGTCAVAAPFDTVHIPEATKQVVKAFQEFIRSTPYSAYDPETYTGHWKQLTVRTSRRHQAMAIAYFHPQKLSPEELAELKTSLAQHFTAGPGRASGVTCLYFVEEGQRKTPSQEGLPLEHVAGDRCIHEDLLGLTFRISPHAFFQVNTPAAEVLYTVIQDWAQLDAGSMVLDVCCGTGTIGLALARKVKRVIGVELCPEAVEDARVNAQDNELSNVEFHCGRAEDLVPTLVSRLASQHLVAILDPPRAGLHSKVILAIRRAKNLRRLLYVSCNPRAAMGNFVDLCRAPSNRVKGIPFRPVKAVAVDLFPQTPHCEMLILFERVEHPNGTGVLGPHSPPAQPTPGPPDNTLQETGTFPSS
UniProt Q6IBS0: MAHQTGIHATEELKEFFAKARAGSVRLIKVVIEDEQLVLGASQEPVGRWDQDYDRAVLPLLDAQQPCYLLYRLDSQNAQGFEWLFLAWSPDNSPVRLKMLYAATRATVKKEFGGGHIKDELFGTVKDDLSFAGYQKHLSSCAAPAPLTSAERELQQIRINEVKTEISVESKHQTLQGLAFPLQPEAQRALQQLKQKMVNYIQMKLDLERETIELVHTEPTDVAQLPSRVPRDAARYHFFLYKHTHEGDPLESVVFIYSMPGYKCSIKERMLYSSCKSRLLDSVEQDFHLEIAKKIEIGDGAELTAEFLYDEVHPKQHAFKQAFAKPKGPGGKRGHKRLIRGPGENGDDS
UniProt Q14166: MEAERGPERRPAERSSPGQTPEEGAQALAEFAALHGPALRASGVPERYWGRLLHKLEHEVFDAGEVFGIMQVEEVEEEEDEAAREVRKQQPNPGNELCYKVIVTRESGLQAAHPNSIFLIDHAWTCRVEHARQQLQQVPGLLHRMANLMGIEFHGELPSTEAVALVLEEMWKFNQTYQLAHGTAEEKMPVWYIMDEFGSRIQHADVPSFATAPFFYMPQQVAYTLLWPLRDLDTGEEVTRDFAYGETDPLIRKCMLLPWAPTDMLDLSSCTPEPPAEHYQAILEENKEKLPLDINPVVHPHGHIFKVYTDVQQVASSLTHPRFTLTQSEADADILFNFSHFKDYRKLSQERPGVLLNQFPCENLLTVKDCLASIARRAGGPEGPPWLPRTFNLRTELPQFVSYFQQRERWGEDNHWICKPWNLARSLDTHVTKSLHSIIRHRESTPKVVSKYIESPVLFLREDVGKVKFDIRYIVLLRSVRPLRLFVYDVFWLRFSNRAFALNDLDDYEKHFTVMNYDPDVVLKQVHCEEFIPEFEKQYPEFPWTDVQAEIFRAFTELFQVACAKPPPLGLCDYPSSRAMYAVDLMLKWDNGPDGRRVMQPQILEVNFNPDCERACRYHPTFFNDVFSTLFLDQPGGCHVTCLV
UniProt Q8N0Z6: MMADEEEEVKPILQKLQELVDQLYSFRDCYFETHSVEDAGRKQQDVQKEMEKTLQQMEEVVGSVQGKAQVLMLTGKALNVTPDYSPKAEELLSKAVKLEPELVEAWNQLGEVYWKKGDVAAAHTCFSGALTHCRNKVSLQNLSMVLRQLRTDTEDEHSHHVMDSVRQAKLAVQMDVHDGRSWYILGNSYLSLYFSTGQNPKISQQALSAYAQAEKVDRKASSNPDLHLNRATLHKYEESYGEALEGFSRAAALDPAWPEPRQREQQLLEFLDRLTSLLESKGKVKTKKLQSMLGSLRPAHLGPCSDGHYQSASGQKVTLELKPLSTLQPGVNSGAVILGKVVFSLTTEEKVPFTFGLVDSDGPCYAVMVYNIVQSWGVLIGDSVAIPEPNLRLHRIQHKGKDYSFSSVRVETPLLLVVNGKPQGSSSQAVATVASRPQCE
UniProt Q8NCE0: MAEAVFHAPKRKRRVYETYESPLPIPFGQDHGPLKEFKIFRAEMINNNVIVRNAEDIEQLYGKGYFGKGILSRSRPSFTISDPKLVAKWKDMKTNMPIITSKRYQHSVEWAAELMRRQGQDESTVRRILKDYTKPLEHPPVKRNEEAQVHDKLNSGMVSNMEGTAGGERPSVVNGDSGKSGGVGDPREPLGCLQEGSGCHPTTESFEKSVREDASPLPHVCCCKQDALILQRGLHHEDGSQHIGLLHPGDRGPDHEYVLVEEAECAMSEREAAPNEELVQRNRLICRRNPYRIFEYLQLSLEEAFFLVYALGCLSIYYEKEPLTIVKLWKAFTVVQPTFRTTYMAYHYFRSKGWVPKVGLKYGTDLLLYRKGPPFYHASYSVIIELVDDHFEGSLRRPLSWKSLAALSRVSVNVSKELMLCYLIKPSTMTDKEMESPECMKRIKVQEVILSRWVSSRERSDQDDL
UniProt Q9BQE3, whole entry: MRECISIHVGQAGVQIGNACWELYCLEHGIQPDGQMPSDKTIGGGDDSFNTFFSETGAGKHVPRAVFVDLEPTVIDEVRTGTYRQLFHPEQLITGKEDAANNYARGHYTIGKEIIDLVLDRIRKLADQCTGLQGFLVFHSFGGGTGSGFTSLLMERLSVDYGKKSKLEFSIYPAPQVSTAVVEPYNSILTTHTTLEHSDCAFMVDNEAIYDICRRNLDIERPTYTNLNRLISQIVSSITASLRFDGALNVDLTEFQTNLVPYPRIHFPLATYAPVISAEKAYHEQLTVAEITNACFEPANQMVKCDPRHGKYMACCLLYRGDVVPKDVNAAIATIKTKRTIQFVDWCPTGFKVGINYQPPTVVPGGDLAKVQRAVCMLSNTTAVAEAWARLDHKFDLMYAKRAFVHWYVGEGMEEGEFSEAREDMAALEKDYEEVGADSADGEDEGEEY
UniProt Q96AE7: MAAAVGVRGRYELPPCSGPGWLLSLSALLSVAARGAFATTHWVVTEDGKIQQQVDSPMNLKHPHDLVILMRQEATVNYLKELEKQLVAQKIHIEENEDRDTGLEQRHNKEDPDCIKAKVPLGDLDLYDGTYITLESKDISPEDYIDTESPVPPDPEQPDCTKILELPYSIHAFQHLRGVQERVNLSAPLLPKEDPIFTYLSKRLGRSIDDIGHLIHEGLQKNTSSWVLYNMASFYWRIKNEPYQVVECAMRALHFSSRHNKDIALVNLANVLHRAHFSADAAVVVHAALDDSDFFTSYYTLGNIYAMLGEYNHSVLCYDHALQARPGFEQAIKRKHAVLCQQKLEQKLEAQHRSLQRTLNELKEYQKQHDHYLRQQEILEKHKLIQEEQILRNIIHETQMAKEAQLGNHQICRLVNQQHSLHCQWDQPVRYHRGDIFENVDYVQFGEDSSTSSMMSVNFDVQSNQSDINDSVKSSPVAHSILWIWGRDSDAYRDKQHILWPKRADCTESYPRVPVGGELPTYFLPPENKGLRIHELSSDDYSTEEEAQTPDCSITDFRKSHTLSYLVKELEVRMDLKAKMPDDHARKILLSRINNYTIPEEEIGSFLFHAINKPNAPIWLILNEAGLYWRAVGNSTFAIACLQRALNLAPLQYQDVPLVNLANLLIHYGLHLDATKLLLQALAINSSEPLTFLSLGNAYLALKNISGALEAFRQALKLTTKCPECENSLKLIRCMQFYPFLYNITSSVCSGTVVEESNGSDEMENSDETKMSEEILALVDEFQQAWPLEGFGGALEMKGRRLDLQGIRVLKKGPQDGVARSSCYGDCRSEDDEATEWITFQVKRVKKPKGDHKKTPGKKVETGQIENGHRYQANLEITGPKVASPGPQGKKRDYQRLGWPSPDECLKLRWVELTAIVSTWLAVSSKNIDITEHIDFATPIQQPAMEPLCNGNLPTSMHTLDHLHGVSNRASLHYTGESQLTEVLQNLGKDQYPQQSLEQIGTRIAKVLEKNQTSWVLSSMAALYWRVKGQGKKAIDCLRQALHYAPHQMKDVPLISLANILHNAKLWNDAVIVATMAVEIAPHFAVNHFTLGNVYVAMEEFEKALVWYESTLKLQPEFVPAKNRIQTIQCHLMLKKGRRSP
UniProt Q99614: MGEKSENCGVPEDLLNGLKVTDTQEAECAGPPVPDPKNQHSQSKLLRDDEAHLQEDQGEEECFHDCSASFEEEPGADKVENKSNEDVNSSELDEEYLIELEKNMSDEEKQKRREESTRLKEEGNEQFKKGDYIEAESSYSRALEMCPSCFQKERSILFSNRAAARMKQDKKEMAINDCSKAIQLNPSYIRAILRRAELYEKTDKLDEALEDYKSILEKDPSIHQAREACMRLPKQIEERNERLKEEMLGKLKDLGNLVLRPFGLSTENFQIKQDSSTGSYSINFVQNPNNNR

Row | Target | probe-labelled cysteine peptide fold change (10 µM) | probe-labelled cysteine peptide fold change (50 µM)
1 | TUBB6_Q9BUF5_12_MREIVHIQAGQCGNQIGTK (UniProt Q9BUF5) | -0.101 | -0.321
2 | TTC7A_Q9ULT0_623_GPEEALVTCR (UniProt Q9ULT0) | 0.0236 | 0.115
3 | TRPV2_Q9Y5S1_218_GQGTCFYFGELPLSLAACTK (UniProt Q9Y5S1) | 0.0953 | 0.15
4 | TWISTNB_Q3B726_193_LDSDAAGVFCIR (UniProt Q3B726) | 0.286 | 0.333
5 | TUBGCP2_Q9BSJ2_648_HMFYCK (UniProt Q9BSJ2) | -0.103 | 0.251
6 | TUBGCP6_Q96RT7_1601_YLPEVFAPNAPDVLSCLELR (UniProt Q96RT7) | 0.218 | 0.313
7 | TSC2_P49815_395_TIVHDLLTTVEELCDQNEFHGSQER (UniProt P49815) | 0.34 | -0.0715
8 | TRRAP_Q9Y4A5_3085_CYLQLAGVMGK (UniProt Q9Y4A5) | -0.309 | 0.325
9 | TSC1_Q92574_822_VCHTELLLSQVSQK (UniProt Q92574) | -0.126 | -0.156
10 | TTC30B_Q8N4P2_619_DSVIQECVQFLEHCELHGR (UniProt Q8N4P2) | 0.0301 | 0.294
11 | TUBGCP3_Q96CW5_18_SPNVLLQNLCCR (UniProt Q96CW5) | 0.0264 | -0.245
12 | TXNDC11_Q6PKC3_815_ECLQSEAVLQR (UniProt Q6PKC3) | -0.265 | -0.101
13 | TUT4_Q5TAX3_394_VITTFLPECSLR (UniProt Q5TAX3) | 0.0149 | 0.0648
14 | TTK_P33981_322_DLVVPGSKPSGNDSCELR (UniProt P33981) | -0.133 | -0.627
15 | TRMT2A_Q8IZ69_486_VNAQDNELSNVEFHCGR (UniProt Q8IZ69) | -0.187 | -0.226
16 | TUBB1_Q9H4B7_12_MREIVHIQIGQCGNQIGAK (UniProt Q9H4B7) | 0.177 | 0.649
17 | TSR3_Q9UJK0_208_YAACGSPEEVLQAEQEFLANAK (UniProt Q9UJK0) | 0.0501 | 0.24
18 | TXNIP_Q9H3M7_170_KVSCMFIPDGR (UniProt Q9H3M7) | 0.205 | -1.47
19 | TRPV2_Q9Y5S1_134_DGVNACILPLLQIDR (UniProt Q9Y5S1) | -0.0797 | 0.168
20 | TUBGCP3_Q96CW5_388_TLAALVDHCQGR (UniProt Q96CW5) | 0.087 | 0.12
21 | TRPM7_Q96QT4_1426_DQETVCSK (UniProt Q96QT4) | -0.298 | -0.32
22 | TSPAN2_O60636_164_ESSEQVQPTCPK (UniProt O60636) | -0.411 | -0.422
23 | TROVE2_P10155_400_VLGSILNASTVAAAMCMVVTR (UniProt P10155) | -0.219 | 0.696
24 | TSPAN14_Q8NG11_200_VVNTQCGYDVR (UniProt Q8NG11) | -0.311 | -0.248

Row | Target | probe-labelled cysteine peptide fold change (10 µM) | probe-labelled cysteine peptide fold change (50 µM)
25 | TUBB6_Q9BUF5_127+129_KECEHCDCLQGFQLTHSLGGGTGSGMGTLLISK (UniProt Q9BUF5) | -0.297 | -0.728
26 | TUBGCP3_Q96CW5_325_SFGLVGQSFCAALHQELR (UniProt Q96CW5) | -0.0124 | 0.0533
27 | TTC13_Q8NBP0_505_DVLHQNFESYKPEVQELICVADR (UniProt Q8NBP0) | -0.249 | 0.0531
28 | TTC27_Q6P3X3_374_NNPVHTLTEVELLAFTSCLLSQPK (UniProt Q6P3X3) | 0.167 | 0.406
29 | TTYH3_Q9C0H2_486_CENTPLIGR (UniProt Q9C0H2) | -0.241 | -0.228
30 | TUT4_Q5TAX3_309_LCLIHIENIQGAHK (UniProt Q5TAX3) | 0.198 | 0.149
31 | TXNDC5_Q8NBS9_128_VDCTAHSDVCSAQGVR (UniProt Q8NBS9) | -0.233 | -0.178
32 | TUBGCP5_Q96RT8_670_FAGGDVCVDR (UniProt Q96RT8) | -0.0895 | -0.626
33 | TTC4_O95801_160_GALCHLELK (UniProt O95801) | 0.25 | -0.00257
34 | TXN2_Q99757_90+93_VVNSETPVVVDFHAQWCGPCK (UniProt Q99757) | -1.92 | -2.07
35 | TRMU_O75648_9_HVVCALSGGVDSAVAALLLR (UniProt O75648) | -0.0925 | 0.225
36 | TSFM_P43897_240_YGALVICETSEQK (UniProt P43897) | 0.0173 | 0.173
37 | TSPYL5_Q86VY4_153_KAPETCSTAGR (UniProt Q86VY4) | -0.083 | -0.28
38 | TRMT44_Q8IYL2_482_EVGFTCGFHVDEDCLR (UniProt Q8IYL2) | 0.161 | 0.256
39 | TUT7_Q5VYS8_1008_FLNILDQVCIQCYK (UniProt Q5VYS8) | 0.124 | -0.158
40 | TWF2_Q6IBS0_141_HLSSCAAPAPLTSAER (UniProt Q6IBS0) | 0.0626 | -0.0878
41 | TTLL12_Q14166_361_PGVLLNQFPCENLLTVK (UniProt Q14166) | -0.00778 | -0.111
42 | TUBA1B_P68363_347_SIQFVDWCPTGFK (UniProt P68363) | 0.15 | 0.00584
43 | TTC7A_Q9ULT0_299_HLAGVLLHSLSEECYWSPLSHPLPEFMGK (UniProt Q9ULT0) | 0.125 | 0.22
44 | TTC5_Q8N0Z6_304_KLQSMLGSLRPAHLGPCSDGHYQSASGQK (UniProt Q8N0Z6) | -0.153 | -0.354
45 | TTC39C_Q8N584_87_MQLACDDLK (UniProt Q8N584) | -0.289 | -0.0251
46 | TWF2_Q6IBS0_67_AVLPLLDAQQPCYLLYR (UniProt Q6IBS0) | 0.115 | 0.237
47 | TTC21B_Q7Z4L5_937_LYLAQDDPDSCLR (UniProt Q7Z4L5) | -0.0676 | -0.421
48 | TWISTNB_Q3B726_47_YSCLVAGPHQR (UniProt Q3B726) | 0.137 | 0.174

Row | Target | probe-labelled cysteine peptide fold change (10 µM) | probe-labelled cysteine peptide fold change (50 µM)
49 | TXNDC11_Q6PKC3_568_KCEVDAPSSVPHIEENR (UniProt Q6PKC3) | -0.231 | -0.332
50 | TRRAP_Q9Y4A5_1376_IAALNALAACNYLPQSR (UniProt Q9Y4A5) | -0.127 | -0.0834
51 | TRMT2A_Q8IZ69_538_LLYVSCNPR (UniProt Q8IZ69) | -0.227 | -0.248
52 | TTC5_Q8N0Z6_125_KGDVAAAHTCFSGALTHCR (UniProt Q8N0Z6) | 0.227 | -0.114
53 | TSEN2_Q8NCE0_439_EMESPECMK (UniProt Q8NCE0) | 0.0949 | 0.0481
54 | TTC28_Q96AY4_794_ALGYHTQELEVYQELSDLPGECR (UniProt Q96AY4) | -0.0169 | -0.0577
55 | TUFM_P49411_127_HYAHTDCPGHADYVK (UniProt P49411) | 0.0555 | 0.0102
56 | TUBA1C_Q9BQE3_376_AVCMLSNTTAVAEAWAR (UniProt Q9BQE3) | -0.038 | -0.00181
57 | TTC7A_Q9ULT0_337_KPHLYEGDNLYCPK (UniProt Q9ULT0) | -0.132 | 0.184
58 | TTC4_O95801_110_CADPDLNAVLYTNR (UniProt O95801) | -0.0529 | -0.155
59 | TTF1_Q15361_708_LQENPESCLSIVR (UniProt Q15361) | -0.276 | -0.436
60 | TTLL12_Q14166_418_ERWGEDNHWICKPWNLAR (UniProt Q14166) | -0.272 | -0.759
61 | TUT4_Q5TAX3_833_ELSQCNCIDLSK (UniProt Q5TAX3) | -0.143 | -0.371
62 | TWSG1_Q9GZX9_185_ISCESMGASK (UniProt Q9GZX9) | -0.121 | -0.0863
63 | TTC17_Q96AE7_506_RADCTESYPR (UniProt Q96AE7) | 0.0661 | 0.13
64 | TRPV2_Q9Y5S1_332_KFTEWCYGPVR (UniProt Q9Y5S1) | -0.039 | -0.268
65 | TTK_P33981_295_TDDSVVPCFMK (UniProt P33981) | -0.0408 | -0.435
66 | TTC1_Q99614_146+149_ALEMCPSCFQK (UniProt Q99614) | 0.455 | -0.31
67 | TWNK_Q96RR1_330_CFLVRPGDQQPRPLEALNGGFNLSR (UniProt Q96RR1) | -0.0451 | -0.244
68 | TSN_Q15631_225_ETAAACVEK (UniProt Q15631) | -0.291 | -0.282
69 | TUBB6_Q9BUF5_127_ECEHCDCLQGFQLTHSLGGGTGSGMGTLLISK (UniProt Q9BUF5) | 0.0743 | -0.111
70 | TUT4_Q5TAX3_709_YFACPQTK (UniProt Q5TAX3) | -0.272 | 0.0569
71 | TTC39C_Q8N584_517_AVKDELCR (UniProt Q8N584) | -0.00819 | -0.291
72 | TSC2_P49815_1755_ICEEAAYSNPSLPLVHPPSHSK (UniProt P49815) | -0.402 | -0.562

A second format for some results above:
Row	Target	probe-labelled cysteine peptide fold change (10 µM)	probe-labelled cysteine peptide fold change (50 µM)
49	TXNDC11_Q6PKC3_568_KCEVDAPSSVPHIEENR (UniProt Q6PKC3)	-0.231	-0.332
50	TRRAP_Q9Y4A5_1376_IAALNALAACNYLPQSR (UniProt Q9Y4A5)	-0.127	-0.0834
51	TRMT2A_Q8IZ69_538_LLYVSCNPR (UniProt Q8IZ69)	-0.227	-0.248
52	TTC5_Q8N0Z6_125_KGDVAAAHTCFSGALTHCR (UniProt Q8N0Z6)	0.227	-0.114
53	TSEN2_Q8NCE0_439_EMESPECMK (UniProt Q8NCE0)	0.0949	0.0481
55	TUFM_P49411_127_HYAHTDCPGHADYVK (UniProt P49411)	0.0555	0.0102
56	TUBA1C_Q9BQE3_376_AVCMLSNTTAVAEAWAR (UniProt Q9BQE3)	-0.038	-0.00181
57	TTC7A_Q9ULT0_337_KPHLYEGDNLYCPK (UniProt Q9ULT0)	-0.132	0.184
58	TTC4_O95801_110_CADPDLNAVLYTNR (UniProt O95801)	-0.0529	-0.155
60	TTLL12_Q14166_418_ERWGEDNHWICKPWNLAR (UniProt Q14166)	-0.272	-0.759
61	TUT4_Q5TAX3_833_ELSQCNCIDLSK (UniProt Q5TAX3)	-0.143	-0.371
62	TWSG1_Q9GZX9_185_ISCESMGASK (UniProt Q9GZX9)	-0.121	-0.0863
63	TTC17_Q96AE7_506_RADCTESYPR (UniProt Q96AE7)	0.0661	0.13
64	TRPV2_Q9Y5S1_332_KFTEWCYGPVR (UniProt Q9Y5S1)	-0.039	-0.268
65	TTK_P33981_295_TDDSVVPCFMK (UniProt P33981)	-0.0408	-0.435
66	TTC1_Q99614_146+149_ALEMCPSCFQK (UniProt Q99614)	0.455	-0.31
67	TWNK_Q96RR1_330_CFLVRPGDQQPRPLEALNGGFNLSR (UniProt Q96RR1)	-0.0451	-0.244
70	TUT4_Q5TAX3_709_YFACPQTK (UniProt Q5TAX3)	-0.272	0.0569
71	TTC39C_Q8N584_517_AVKDELCR (UniProt Q8N584)	-0.00819	-0.291
72	TSC2_P49815_1755_ICEEAAYSNPSLPLVHPPSHSK (UniProt P49815)	-0.402	-0.562
